The target in experiment [1] is T1, Myc-tagged taperin (mouse) (UniProt A2AI08).
T1 sequence: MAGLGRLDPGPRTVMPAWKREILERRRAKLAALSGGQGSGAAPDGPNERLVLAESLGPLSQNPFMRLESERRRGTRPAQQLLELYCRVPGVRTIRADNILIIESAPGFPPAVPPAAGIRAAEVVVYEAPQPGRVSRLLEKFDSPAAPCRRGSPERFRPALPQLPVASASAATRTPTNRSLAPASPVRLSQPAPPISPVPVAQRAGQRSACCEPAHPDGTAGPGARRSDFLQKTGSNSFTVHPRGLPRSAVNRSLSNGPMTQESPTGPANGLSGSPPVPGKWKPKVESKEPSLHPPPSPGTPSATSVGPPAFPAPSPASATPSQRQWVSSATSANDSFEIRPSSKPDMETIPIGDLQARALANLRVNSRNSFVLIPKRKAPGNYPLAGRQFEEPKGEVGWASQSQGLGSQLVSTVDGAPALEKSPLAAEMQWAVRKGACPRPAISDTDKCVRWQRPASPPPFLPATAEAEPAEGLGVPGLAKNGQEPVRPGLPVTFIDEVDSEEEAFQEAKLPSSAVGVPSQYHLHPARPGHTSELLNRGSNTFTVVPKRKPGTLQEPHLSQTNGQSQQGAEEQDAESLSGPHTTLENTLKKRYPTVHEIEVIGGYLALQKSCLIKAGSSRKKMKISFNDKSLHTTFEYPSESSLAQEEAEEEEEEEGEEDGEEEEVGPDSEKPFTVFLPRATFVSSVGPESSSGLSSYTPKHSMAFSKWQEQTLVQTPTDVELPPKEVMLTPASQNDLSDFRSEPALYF
Kind of experiment: co-IP; extracts of co-transfected HEK293 cells; immunoprecipitation with Myc-antibody, western blot for the co-expressed GFP-tagged protein (Figure 2A and 2C). In general terms: Immunoblotting shows a protein as a band on a membrane.

The next experiment concerns the target T2, HA-tagged GRXCR2 (mouse) (UniProt Q3TYR5).
T2 sequence: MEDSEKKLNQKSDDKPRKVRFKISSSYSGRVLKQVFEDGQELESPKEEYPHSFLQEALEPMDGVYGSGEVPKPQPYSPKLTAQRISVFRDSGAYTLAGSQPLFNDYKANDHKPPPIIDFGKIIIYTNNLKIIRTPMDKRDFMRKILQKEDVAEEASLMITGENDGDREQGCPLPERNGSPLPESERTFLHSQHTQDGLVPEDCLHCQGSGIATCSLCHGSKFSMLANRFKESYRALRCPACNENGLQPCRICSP
Kind of experiment: co-IP; extracts of co-transfected HEK293 cells; immunoprecipitation with HA-antibody, western blot for co-expressed Myc-taperin (Figure 2B).

Data on three molecules can be found in publication PMC6317715.

Results are given in words; binding and its absence hold for the method and conditions named. In cells and extracts the contact can be indirect. Some binding calls cover weakened binding; strength is not graded here. Tags and fused reporters may be left off the sequences shown.

B1: GFP-tagged GRXCR2 (protein, UniProt Q3TYR5 1-254)
chain: T2 sequence
For the molecule B1, the binding result in experiment [1] is reported as “binds”.

B2: GRXCR1-GFP (protein, UniProt Q50H32 1-290)
chain: MLRRETKPESDRPRKVRFRIASSHSGRVLKEVYEDGQAPGSLDSECASICAIDGLSDSEGQQNGHIGSEDNEQEKDQDNLLVLARTASEKAFGTRRVNILSKNGTVRGVKYKVSAGQALFNNLTKVLQQPSADLEFDRVVIYTTCLRVVRTTFERCELVRKIFQNHRVKFEEKNIALNGDYGKELDERCRRVSEAPSLPVVFIDGHYLGGAEKILSMNESGELQDLLTKIERVQHPHECPSCGGFGFLPCSVCHGSKMSVFRNCFTDAFKALKCTACNENGLQRCKNCTC
Take B2: the binding result in experiment [1] is on record as “no binding”.

B3: Myc-tagged taperin (protein, UniProt A2AI08 1-749)
chain: T1 sequence
Take B3: in the experiment with HA-tagged GRXCR2 (mouse), the binding entry was “binds”.
